Publication PMC12059206
Results are given in words; binding and its absence hold for the method and conditions named. A result given as binding can be weak or reduced; the word gives no strength. Tags and fused reporters may be left off the sequences shown.

Biological target: T1, GST-fusion SENP1 protein (UniProt Q9P0U3)
T1 sequence: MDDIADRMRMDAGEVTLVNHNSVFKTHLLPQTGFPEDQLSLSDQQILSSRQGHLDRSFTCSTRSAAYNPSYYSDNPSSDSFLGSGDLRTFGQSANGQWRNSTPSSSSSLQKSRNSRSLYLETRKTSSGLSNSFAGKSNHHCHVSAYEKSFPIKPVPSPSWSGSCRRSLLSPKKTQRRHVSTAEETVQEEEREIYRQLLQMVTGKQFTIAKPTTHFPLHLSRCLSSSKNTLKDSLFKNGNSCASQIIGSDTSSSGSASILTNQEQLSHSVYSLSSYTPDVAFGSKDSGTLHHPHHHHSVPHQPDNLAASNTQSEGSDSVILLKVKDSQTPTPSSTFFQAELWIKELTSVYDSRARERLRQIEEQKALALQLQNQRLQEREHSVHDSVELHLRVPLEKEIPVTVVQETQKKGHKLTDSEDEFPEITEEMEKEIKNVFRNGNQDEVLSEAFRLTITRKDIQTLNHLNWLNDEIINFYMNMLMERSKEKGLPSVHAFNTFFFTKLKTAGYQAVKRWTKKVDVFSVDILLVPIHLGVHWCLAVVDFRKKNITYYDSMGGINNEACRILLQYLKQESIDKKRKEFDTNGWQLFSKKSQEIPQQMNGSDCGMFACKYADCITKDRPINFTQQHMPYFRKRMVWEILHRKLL
Test: pull-down; GST-pulldown in vitro with purified MEF2C-FLAG and GST-tagged SENP1; GST as control; both purified

binding: binds
Substance: MEF2C-FLAG fusion protein
